Test results published in paper PMC12501026.
Results are given in words; binding and its absence hold for the method and conditions named. Binding seen in cells or lysates may run through a third protein. Some results given as binding are weak or reduced against the parent protein; the word gives no strength.

The chains behind the UniProt entries cited, without tags or fusion partners. Where a name states a change or a piece, a line headed by the entry shows the natural chain unless it says otherwise.
UniProt P16401: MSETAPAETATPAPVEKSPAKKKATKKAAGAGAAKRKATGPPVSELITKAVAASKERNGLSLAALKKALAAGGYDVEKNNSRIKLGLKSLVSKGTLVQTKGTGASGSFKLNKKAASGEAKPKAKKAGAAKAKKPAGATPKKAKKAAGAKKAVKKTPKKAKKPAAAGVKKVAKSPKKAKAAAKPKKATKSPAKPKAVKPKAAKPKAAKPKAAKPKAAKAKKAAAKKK
UniProt P25963: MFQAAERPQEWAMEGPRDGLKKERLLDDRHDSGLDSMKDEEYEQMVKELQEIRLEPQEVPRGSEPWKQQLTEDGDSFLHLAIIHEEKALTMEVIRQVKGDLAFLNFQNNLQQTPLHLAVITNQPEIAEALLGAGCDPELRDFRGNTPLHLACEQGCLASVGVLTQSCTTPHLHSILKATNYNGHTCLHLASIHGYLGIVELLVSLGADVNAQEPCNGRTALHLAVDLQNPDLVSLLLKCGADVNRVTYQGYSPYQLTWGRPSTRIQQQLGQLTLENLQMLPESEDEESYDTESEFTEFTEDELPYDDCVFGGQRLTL

Legend:
[1] = molecular target: Histone H1.5 (human (endogenous in DB)) (UniProt P16401); experiment: co-IP; immunoprecipitation of endogenous histone H1.5 from RIPA lysate (antibody and magnetic beads overnight at 4 °C, five washes), western blot for IκBα; cells with or without chidamide, or with siRNA against HDAC1, HDAC2, HDAC3 or HDAC10
[2] = molecular target: Flag-Histone H1.5 K93R (human) (UniProt P16401); experiment: co-IP; DB cells transfected with Flag-histone H1.5 or its K-to-R mutants, with chidamide; histone H1.5 enriched from RIPA lysate, western blot for IκBα
[3] = molecular target: Flag-Histone H1.5 K67R (human) (UniProt P16401); experiment: as above
[4] = molecular target: Flag-Histone H1.5 (human) (UniProt P16401); experiment: as above

Measured: binding

IκBα (from UniProt P25963 1-317)
binds: [1] | [2] | [3] | [4]
